Data taken from the supplement of paper PMC5355238.
Counter-ions that a name gives are not always drawn. Some of the results follow. Most entries show no effect beyond the scatter of the controls.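 Reh, a human leukemia cell line, is read out by flow cytometry as the median γH2AX antibody signal in S-phase cells; the score counts standard deviations from the median difference of each paired plate set. Scores above 2.5 were candidate hits; scores below -2 mark compounds lowering MK1775-induced damage.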

System: Reh
Assay: Z' of S-phase gammaH2AX difference (drug + MK1775 minus drug alone) (Z-score); higher = stronger synergistic S-phase DNA damage with MK1775
Details: MK1775 concentration 400 nM; first compound 10 µM; 4 h

Structure (SMILES) | Z' of S-phase gammaH2AX difference (Z-score)
Clc1ccccc1C(c1ccccc1)(c1ccccc1)n1ccnc1 [Clotrimazole] + C=CCn1c(=O)c2cnc(Nc3ccc(N4CCN(C)CC4)cc3)nc2n1-c1cccc(C(C)(C)O)n1 [MK1775] | inactive: 0.688
NC(=O)NO [Hydroxyurea] + C=CCn1c(=O)c2cnc(Nc3ccc(N4CCN(C)CC4)cc3)nc2n1-c1cccc(C(C)(C)O)n1 [MK1775] | inactive: -1.58
CNC1(C)C2CCC(C2)C1(C)C (centres undefined) [Mecamylamine hydrochloride] + C=CCn1c(=O)c2cnc(Nc3ccc(N4CCN(C)CC4)cc3)nc2n1-c1cccc(C(C)(C)O)n1 [MK1775] | inactive: -0.64
CC(C)(Oc1ccc(C2CC2(Cl)Cl)cc1)C(=O)O (centres undefined) [Ciprofibrate] + C=CCn1c(=O)c2cnc(Nc3ccc(N4CCN(C)CC4)cc3)nc2n1-c1cccc(C(C)(C)O)n1 [MK1775] | inactive: 0
c1ccc2c(-c3cnn4cc(-c5ccc(N6CCNCC6)cc5)cnc34)ccnc2c1 + C=CCn1c(=O)c2cnc(Nc3ccc(N4CCN(C)CC4)cc3)nc2n1-c1cccc(C(C)(C)O)n1 [MK1775] | inactive: -0.846
O=C(O)CCC/C=C\C[C@@H]1[C@@H](/C=C/[C@H](O)C2Cc3ccccc3C2)[C@@H](F)C[C@@H]1O + C=CCn1c(=O)c2cnc(Nc3ccc(N4CCN(C)CC4)cc3)nc2n1-c1cccc(C(C)(C)O)n1 [MK1775] | inactive: -0.13
Cc1[nH]c(/C=C2\C(=O)Nc3ccc(S(=O)(=O)Cc4c(Cl)cccc4Cl)cc32)c(C)c1C(=O)N1CCC[C@@H]1CN1CCCC1 + C=CCn1c(=O)c2cnc(Nc3ccc(N4CCN(C)CC4)cc3)nc2n1-c1cccc(C(C)(C)O)n1 [MK1775] | inactive: -0.784
Nc1nc(Nc2ccc(S(N)(=O)=O)cc2)nn1C(=O)c1c(F)cccc1F + C=CCn1c(=O)c2cnc(Nc3ccc(N4CCN(C)CC4)cc3)nc2n1-c1cccc(C(C)(C)O)n1 [MK1775] | inactive: -0.885
CC(C)c1onc(-c2c(Cl)cccc2Cl)c1COc1ccc(/C=C/c2cccc(C(=O)O)c2)c(Cl)c1 + C=CCn1c(=O)c2cnc(Nc3ccc(N4CCN(C)CC4)cc3)nc2n1-c1cccc(C(C)(C)O)n1 [MK1775] | inactive: 0.134
CCCCC#Cc1nc(N)c2ncn([C@@H]3O[C@H](C(=O)NCC)[C@@H](O)[C@H]3O)c2n1 + C=CCn1c(=O)c2cnc(Nc3ccc(N4CCN(C)CC4)cc3)nc2n1-c1cccc(C(C)(C)O)n1 [MK1775] | inactive: -0.532
CC(CCc1ccc(O)cc1)NCCc1ccc(O)c(O)c1 (centres undefined) [Dobutamine hydrochloride] + C=CCn1c(=O)c2cnc(Nc3ccc(N4CCN(C)CC4)cc3)nc2n1-c1cccc(C(C)(C)O)n1 [MK1775] | inactive: -1.05
N[C@@H](CCC(=O)N[C@@H](CSN=O)C(=O)NCC(=O)O)C(=O)O [S-Nitrosoglutathione] + C=CCn1c(=O)c2cnc(Nc3ccc(N4CCN(C)CC4)cc3)nc2n1-c1cccc(C(C)(C)O)n1 [MK1775] | inactive: -0.141
O=C1C(Cl)=C(NCCN2CCOCC2)C(=O)c2ncccc21 + C=CCn1c(=O)c2cnc(Nc3ccc(N4CCN(C)CC4)cc3)nc2n1-c1cccc(C(C)(C)O)n1 [MK1775] | inactive: 1.37
O=c1cc(O)cc(/C=C/c2ccc(O)c(O)c2)o1 [Hispidin] + C=CCn1c(=O)c2cnc(Nc3ccc(N4CCN(C)CC4)cc3)nc2n1-c1cccc(C(C)(C)O)n1 [MK1775] | inactive: -0.59
COc1cc2ncnc(Nc3ccc(Oc4ccccc4)cc3)c2cc1OC + C=CCn1c(=O)c2cnc(Nc3ccc(N4CCN(C)CC4)cc3)nc2n1-c1cccc(C(C)(C)O)n1 [MK1775] | inactive: -0.0525
Cn1c(=O)c(F)c(Nc2ccc(I)cc2F)c2c(=O)n(C[C@@H](O)CO)cnc21 + C=CCn1c(=O)c2cnc(Nc3ccc(N4CCN(C)CC4)cc3)nc2n1-c1cccc(C(C)(C)O)n1 [MK1775] | inactive: 0.169
O=c1[nH]c(=O)n([C@H]2C[C@H](O)[C@@H](CO)O2)cc1/C=C/Br [(E)-5-(2-Bromovinyl)-2'-deoxyuridine] + C=CCn1c(=O)c2cnc(Nc3ccc(N4CCN(C)CC4)cc3)nc2n1-c1cccc(C(C)(C)O)n1 [MK1775] | inactive: 0.251
CC(C)N(CCC(=O)c1ccc2ccccc2c1)Cc1ccccc1 + C=CCn1c(=O)c2cnc(Nc3ccc(N4CCN(C)CC4)cc3)nc2n1-c1cccc(C(C)(C)O)n1 [MK1775] | inactive: -0.369
O=C(Nc1cccc(Cl)c1)Nc1ncc(CCNc2ncnc3ccsc23)s1 + C=CCn1c(=O)c2cnc(Nc3ccc(N4CCN(C)CC4)cc3)nc2n1-c1cccc(C(C)(C)O)n1 [MK1775] | inactive: -0.557
COc1ccc(CCCOC(Cn2ccnc2)c2ccc(OC)cc2)cc1 (centres undefined) + C=CCn1c(=O)c2cnc(Nc3ccc(N4CCN(C)CC4)cc3)nc2n1-c1cccc(C(C)(C)O)n1 [MK1775] | inactive: -0.259
CCCOC(=O)c1c(-c2ccccc2)nc(CC)c(C(=O)SCC)c1CCC + C=CCn1c(=O)c2cnc(Nc3ccc(N4CCN(C)CC4)cc3)nc2n1-c1cccc(C(C)(C)O)n1 [MK1775] | inactive: 0.509
O=C(NCC1CCCCN1)c1cc(OCC(F)(F)F)ccc1OCC(F)(F)F (centres undefined) [Flecainide acetate] + C=CCn1c(=O)c2cnc(Nc3ccc(N4CCN(C)CC4)cc3)nc2n1-c1cccc(C(C)(C)O)n1 [MK1775] | inactive: -0.148
COc1cc(N2CCC(N3CCN(C)CC3)CC2)ccc1Nc1ncc(Cl)c(Nc2ccccc2S(=O)(=O)C(C)C)n1 + C=CCn1c(=O)c2cnc(Nc3ccc(N4CCN(C)CC4)cc3)nc2n1-c1cccc(C(C)(C)O)n1 [MK1775] | inactive: -0.997
Cc1nc2c(OCc3ccccc3)cccn2c1CC#N + C=CCn1c(=O)c2cnc(Nc3ccc(N4CCN(C)CC4)cc3)nc2n1-c1cccc(C(C)(C)O)n1 [MK1775] | inactive: 1.09

Some of the entries so far, as labelled records:
c1ccc2c(-c3cnn4cc(-c5ccc(N6CCNCC6)cc5)cnc34)ccnc2c1 + C=CCn1c(=O)c2cnc(Nc3ccc(N4CCN(C)CC4)cc3)nc2n1-c1cccc(C(C)(C)O)n1 [MK1775]
  Z' of S-phase gammaH2AX difference (Z-score): inactive: -0.846
O=C(O)CCC/C=C\C[C@@H]1[C@@H](/C=C/[C@H](O)C2Cc3ccccc3C2)[C@@H](F)C[C@@H]1O + C=CCn1c(=O)c2cnc(Nc3ccc(N4CCN(C)CC4)cc3)nc2n1-c1cccc(C(C)(C)O)n1 [MK1775]
  Z' of S-phase gammaH2AX difference (Z-score): inactive: -0.13
